# The whole screen tested about 340,000 compounds, of which about 170 (0.05%) were called active. Inconclusive results, whose numbers are uncertain, are shown with a selection of clear calls. Calls come from the whole dose curve; as a rule, active = well fitted inhibition curve with a large enough effect in the signal ratio, with a control signal flat (not every such curve was filed as active); inconclusive = small, poorly fitted or top-dose-only effect, or effect the other way, or a change in a side signal; inactive = flat fitted curve, though single readings scatter; the % refers to the signal ratio. Potencies beside an inconclusive call are fits to weak or partial responses and may not hold up.
# Assay: qHTS Assay to Find Inhibitors of Chronic Active B-Cell Receptor Signaling;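 for activity change, negative = inhibition: plate controls were basal doxycycline-induced cells for no effect and cells given 10 µM MG132 for full effect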
# Settings: ABC-DLBCL IkBa-CBG/CBR reporter, luminescence ratio (green luciferase fused to IkBa over red control in TMD8 lymphoma cells), 4 h; activity change, negative = inhibition: at 46.1 µM (top of the series)
# Procedure, shortened: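 Doxycycline induced both beetle luciferases in TMD8 lymphoma cells; IKK-driven degradation limits the IkappaBalpha-fused green signal, while red luminescence normalises for cell number and nonspecific effects. Compounds tested up to 46 uM, 4 hrs.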
# Potency is the fitted concentration of half-maximal effect.
Compound,"activity change, negative = inhibition",Potency
Nc1ccc(C2(c3ccc(N)cc3)c3ccccc3-c3ccccc32)cc1,inconclusive: -0.0594%,
O=C(O)c1ccc(/C=C/c2nc3ccccc3c(=O)n2-c2ccc(Br)cc2)cc1,inconclusive: 3.86%,
Cc1ccc(NC(=O)c2snnc2C)cc1Cl,,"inconclusive: 11.2 µM [falling, partial curve, poor fit]"
COc1ccccc1CCNC1CCCCCC1,inactive,
N#CC1=C(N)Oc2c(c(=O)oc3ccccc23)C1c1ccncc1 (stereo not given),inactive,
Cc1ccc(NC(=O)c2cc(N(C)C)ccc2[P+](=O)O)cc1,inconclusive: 4.83%,
CCCOC(=O)c1c(N)n(Cc2cccs2)c2nc3ccccc3nc12,,"inconclusive: 0.82 µM [rising, full curve]"
CCc1c(C)nc(N)nc1N1N=C1SCC(N)=O,inconclusive: 18.1%,
CCOc1cccc2cc(C(=O)NCCC3=CCCCC3)c(=O)oc12,,"inconclusive: 11.2 µM [falling, partial curve, poor fit]"
CCn1ccnc1CN1CCCC(C(=O)c2ccc(OC)cc2OC)C1 (stereo not given),inactive,
CCOc1ccc(/C=N/Nc2nc(=O)[nH]nc2C)cc1OC,inconclusive: 6.92%,
O=C(O)Cn1cc(C=C2C(=O)NC(=O)NC2=O)c2ccccc21,inconclusive: 0.115%,
CC(Cc1ccccc1)[n+]1cc(/N=C(\[O-])Nc2ccccc2)on1 (stereo not given),inconclusive: 16.7%,
CC(C)CNC(=O)c1c(N)n(Cc2ccc3c(c2)OCO3)c2nc3ccccc3nc12,,"inconclusive: 29.1 µM [falling, single point]"
C[C@]12CC[C@H](O)CC1=C([N+](=O)[O-])CC1C2CC[C@@]2(C)C1CC[C@@H]2O (stereo not given in full),inconclusive: 1.35%,
CCCOc1ccccc1NP(=O)(Oc1ccccc1)Oc1ccccc1,inconclusive: -3.15%,
COc1cccc(C2CC3C(=O)C=CC2N3Cc2ccccc2)c1 (stereo not given),inactive,
CCOC(=O)C1=C(N)Oc2c(c(=O)oc3ccccc23)C12C(=O)N(C)c1ccccc12 (stereo not given),inconclusive: -7.47%,
Cc1onc(-c2ccccc2Cl)c1C(=O)Nc1cccc2cccnc12,inconclusive: 2.01%,
CCOC(=O)C1(CCc2ccccc2)CCN(Cc2csc(C(C)=O)c2)CC1,inactive,
CCS(=O)(=O)c1nnnn1-c1ccccc1S(C)(=O)=O,inconclusive: 1.73%,
Cc1cc(OC(=O)c2ccco2)c2c3c(c(=O)oc2c1)CCCC3,inconclusive: 5.63%,
CN1C(=O)C(=Cc2ccccc2OCc2ccccc2Cl)C(=O)N(C)C1=O,inconclusive: 0.876%,
CC1(C)Cc2c(c(N3CCCC3)nc3sc(C(=O)Nc4ccccc4)c(N)c23)CO1,,"inconclusive: 17.8 µM [falling, partial curve]"
Cc1ccc(C(=O)NCC(=O)NCC(=O)OCc2ccc(F)cc2)cc1,inconclusive: 8.46%,
COc1ccc(C(=O)C2CCCN(Cc3ccc(C)s3)C2)c(OC)c1 (stereo not given),,"inconclusive: 20 µM [falling, partial curve, poor fit]"
COC(=O)C1=C(c2c(C)noc2C)C[C@@H]2CC[C@H]1N2C(=O)NCc1ccc(F)cc1,inconclusive: -3.89%,
NC(=O)c1ccc(N=Cc2c(O)n(Cc3ccco3)c(=O)[nH]c2=O)cc1,inconclusive: 0.801%,

Compound,"activity change, negative = inhibition",Potency
Cc1ccc(N)cc1N,inactive,
C=CCn1c(SCC(=O)c2ccc(O)c(O)c2)nnc1-c1cccnc1,inconclusive: -18.3%,
O=C(NC1CCCCC1)Oc1cc2oc(=O)sc2cc1Cl,inconclusive: -1.93%,
Cc1ccc(N2C(=O)/C(=C/N3CCN(C(=O)c4ccco4)CC3)C(=O)NC2=S)cc1C,inactive,
CCC(Sc1nc(C)cc(C)n1)C(=O)O (stereo not given),inconclusive: 7.01%,
CCOC(=O)c1c(N)n(CCCOC(=O)c2ccco2)c2nc3ccccc3nc12,inactive,
O=C(OC1CC2CCC(N2)C1C(=O)O)c1ccccc1 (stereo not given),inactive,
CC(=O)NC(Cc1ccc(N(CCCl)CCCl)cc1)C(=O)NC(CC(C)C)C(=O)O (stereo not given),inactive,
COC(=O)C1=C(c2ccc(OC)c(OC)c2)C[C@@H]2CC[C@H]1N2C(=O)NCc1cccc2ccccc12,inconclusive: 4.99%,
O=[N+]([O-])c1cccc2c([As](=O)(O)O)cccc12,inconclusive: -7.34%,
Cc1nnc(NC(=O)c2cccn(Cc3cccc([N+](=O)[O-])c3)c2=O)s1,inactive,
CSc1ccccc1C(=O)C1CCCN(Cc2ccncc2)C1 (stereo not given),inactive,
O=C(Cn1cc(C(=O)c2ccccc2F)c2ccccc21)NC1CC1,inconclusive: 10.2%,
O=C(/C=C/c1cccs1)c1cc(Cl)ccc1OC(=O)N1CCOCC1,,"inconclusive: 7.31 µM [falling, partial curve]"
CC1=CC(=C2C(=O)NC(=O)NC2=O)C=C(C(F)(F)F)N1C(C)C,inactive,
Cc1ccc(NC(=S)NCCc2cnc[nH]2)cc1C,inactive,
Cc1c(C(=O)O)cc(-c2ccccc2)n1Cc1ccccc1,inconclusive: 14.5%,
Nc1ccc2ccc3cccc[n+]3c2c1,inactive,
COCCNC(=O)N1[C@H]2CC[C@@H]1C(C(=O)OC)=C(c1ccc(-c3ccccc3)c(F)c1)C2,inactive,
Cc1ccc2nc3c(cc2c1)CC1(C(=O)N(C)C(=O)N(C)C1=O)C1CCCCN31 (stereo not given),inconclusive: 7%,
COC(=O)C(O)(c1ccc2c(c1)CCCN2)C(F)(F)F (stereo not given),inconclusive: 9.23%,
O=C1NC(=O)C(CCc2ccncc2)(CCc2ccncc2)C(=O)N1Cc1ccc(F)cc1,inactive,
c1ccc2c(c1)Sc1ccccc1N2CC1CN2CCC1CC2 (stereo not given),inconclusive: -14.5%,
Cc1ccc(OP(=O)(Nc2cccc(C)c2)Oc2ccc(C)cc2)cc1,inconclusive: -0.218%,
Cc1cc(Nc2ccccc2N2CCOCC2)n2ncnc2n1,inconclusive: -0.659%,
C[C@]12CC[C@H]3[C@@H](CC[C@]4(O)C[C@@H](O)CC[C@]34C=O)[C@@]1(O)CC[C@@H]2C1=CC(=O)OC1,inconclusive: -16.8%,
CC1=C/C(=C(\c2cc(C)c(O)c(Br)c2)c2ccccc2S(=O)(=O)O)C=C(Br)C1=O,,"inconclusive: 22.4 µM [falling, single point]"

# 3 entries from above, ordered by SMILES length, largest number first.
Compound,"activity change, negative = inhibition",Potency
COCCNC(=O)N1[C@H]2CC[C@@H]1C(C(=O)OC)=C(c1ccc(-c3ccccc3)c(F)c1)C2,inactive,
CC1=CC(=C2C(=O)NC(=O)NC2=O)C=C(C(F)(F)F)N1C(C)C,inactive,
CCC(Sc1nc(C)cc(C)n1)C(=O)O (stereo not given),inconclusive: 7.01%,

# From PubChem BioAssay AID493014 (National Center for Advancing Translational Sciences (NCATS), 2011)
